Our source for the AC50 values is PubChem BioAssay AID1487 (National Center for Advancing Translational Sciences (NCATS), 2009).

The other results are listed elsewhere or left out. Further columns of the screen follow, without active or inactive calls. Most of these compounds were active or inconclusive in the main read-out, so they are no random draw. The note in brackets gives the kind of curve behind each potency; many fits are weak.

The test can be described thus: qHTS Assay for Modulators of Lamin A Splicing. The settings on record: HeLa LMNA splicing GFP/RFP minigene ratio, 48 h. The essentials:
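Read-out is the ratio of GFP to DsRed2 object intensity, acquired by 488 nm laser-scanning cytometry on HeLa lamin A-EGFP minigene reporter cells. Compound incubation 48 hrs at 37 °C in Opti-MEM with 2% FBS; DMSO 0.5% final.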

Where [1] appears, read: measured here: GFP splicing reporter channel.
The mark [2] stands for this setting: measured here: RFP viability control channel.

What is called AC50 is the concentration at which the activity in the assay is half-maximal.

For `CC(=O)Nc1cccc(NC(=O)c2ccc([N+](=O)[O-])cc2Cl)c1`, the AC50 under setting [1] was 35.5 µM [rising, single point]. In the case of `Cc1c(C(=O)NCCc2ccc3c(c2)OCCO3)oc2ccccc12`, under setting [2], the AC50 was 20 µM [rising, single point]. Regarding `O=c1[nH]c(SCc2nc3ccccc3c(=O)n2-c2ccccc2C(F)(F)F)nc2ccccc12`, the AC50 under setting [2] was 8.91 µM [rising, partial curve]. On to `O=C(Nc1ncc(Cc2cccc([N+](=O)[O-])c2)s1)c1ccco1`, for which, under setting [1], the AC50 is 1.26 µM [rising, full curve, poor fit]. For the molecule `Oc1ccc(Cl)cc1-c1cc(-c2ccccc2)n[nH]1`, under setting [2], the AC50 was 12.6 µM [rising, partial curve]. For the molecule `O=C(O)COC(=O)Cc1ccccc1Nc1c(Cl)cccc1Cl`, the AC50 reads like this: under setting [1], 0.0501 µM [falling, full curve]; under setting [2], 0.0447 µM [falling, full curve].

Turning to `CCCS(=O)(=O)c1nc(S(=O)(=O)c2ccc(C)cc2)c(N2CCc3ccccc3C2)s1`, the AC50 under setting [2] is 1.41 µM [rising, partial curve]. Take `N/C(=N\OC(=O)c1cnn(-c2ccccc2)c1C(F)(F)F)c1ccc(C(F)(F)F)cc1`: the AC50 under setting [1] is 12.6 µM [falling, single point] and the AC50 under setting [2] is 15.8 µM [falling, partial curve, poor fit]. On to `Cc1ccc(C)c(N2CCN(C(=O)CCS(=O)(=O)c3cccc4nonc34)CC2)c1`, for which, under setting [2], the AC50 was 15.8 µM [rising, single point]. In the case of `Fc1ccccc1Cn1nnc(-c2ccc3c(c2)OCO3)n1`, the AC50 under setting [1] was 3.98 µM [rising, partial curve, poor fit].

For `C/C(=N\NC(=O)c1ccco1)c1cc2ccccc2o1`, the AC50 under setting [2] was 11.2 µM [rising, partial curve, poor fit]. In the case of `Nc1cccc(C(=O)OCC(=O)Nc2cccc3c2C(=O)c2ccccc2C3=O)c1`, the AC50 was 15.8 µM [falling, single point] under setting [1] and 8.91 µM [falling, single point] under setting [2]. Take `COc1ccccc1CCNC(=O)CCn1c(=O)c2cccn2c2ccc(F)cc21`: the AC50 under setting [1] was 0.0501 µM [rising, full curve, poor fit]. For `O=S(=O)(Nc1cccc2ncccc12)c1cccs1`, the AC50 under setting [2] is 12.6 µM [rising, partial curve]. With `CCOc1ccc(NC(=O)COC(=O)C2(C)CC2(Cl)Cl)c([N+](=O)[O-])c1` (centres undefined), under setting [2], the AC50 was 1.26 µM [falling, partial curve]. Consider `Clc1nccc2c1ccc1ccccc12`, for which the AC50 runs as follows: under setting [1], 25.1 µM [falling, single point]; under setting [2], 5.62 µM [falling, full curve, poor fit]. Regarding `O=c1[nH]c(NNC(=S)NCc2ccccc2)nc2c1C1(CCCCC1)Cc1ccccc1-2`, the AC50 is, setting by setting: under setting [1], 35.5 µM [falling, single point]; under setting [2], 25.1 µM [falling, single point].

With `CC(C)c1ccccc1OCCNC(=O)c1cncc(Br)c1`, under setting [2], the AC50 is 35.5 µM [falling, partial curve, poor fit]. Same read-out and setting: as for `Cc1cccc(NC(=O)CSc2ccc(C(N)=O)cc2[N+](=O)[O-])c1C`, the figure is 0.562 µM [rising, single point]; as for `Cc1c(NC(=O)c2cc(-c3cccs3)nc3ccccc23)c(=O)n(-c2ccccc2)n1C`, 5.62 µM [rising, full curve, poor fit]. For the molecule `CCC(OC(=O)C1=Cc2ccccc2OC1)C(=O)NC1CCCC1` (centres undefined), the AC50 is, setting by setting: under setting [1], 35.5 µM [rising, single point]; under setting [2], 22.4 µM [rising, partial curve].

As for `COC(=O)c1ccc(O)c(Sc2cc(C(=O)OC)ccc2O)c1`, the AC50 under setting [2] was 14.1 µM [rising, partial curve]. Regarding `COc1ccccc1NC(=S)NC(=O)C(C)(C)C`, the AC50 under setting [2] is 0.0447 µM [falling, full curve, poor fit].

On to `CCCSc1nc(=O)c2c(n1C)NC(=O)CC2c1cccc(F)c1F` (centres undefined), for which, under setting [1], the AC50 is 0.00708 µM [rising, full curve, poor fit]. Regarding `Cc1ccc(-c2noc(C3CCCN(S(=O)(=O)c4ccc5ccccc5c4)C3)n2)o1` (centres undefined), the AC50 under setting [2] was 17.8 µM [rising, single point]. On to `CSc1ccc(Cl)c(C(=O)OCC(=O)N(C)CCC#N)c1`, for which, under setting [1], the AC50 was 25.1 µM [falling, single point]. For `COc1ccc(NC(=O)N[C@@H](CCSC)C(=O)O)cc1Cl`, the AC50 under setting [1] was 12.6 µM [rising, partial curve] and the AC50 under setting [2] was 0.447 µM [rising, full curve, poor fit]. With `CC(Oc1ccc(Cl)cc1)C(=O)NCCN1C(=O)S/C(=C\c2cccnc2)C1=O` (centres undefined), the AC50 under setting [2] is 4.47 µM [rising, full curve]. In the case of `COc1ccc(CNc2cc(-c3cccc(C#N)c3)ncn2)c(OC)c1`, the AC50 under setting [1] was 4.47 µM [falling, partial curve, poor fit]. In the case of `C[C@H](Oc1ccccc1)C(=O)N[C@@H]1C(=O)N2[C@@H]1SC(C)(C)[C@@H]2C(=O)O`, the AC50 was 0.562 µM [falling, full curve, poor fit] under setting [1] and 0.0631 µM [falling, single point] under setting [2]. Consider `Cc1cccc(OCc2nnc(SCC(=O)OC3CCCCC3)o2)c1`, for which the AC50 under setting [2] was 39.8 µM [falling, partial curve, poor fit]. Take `COCCN1C(=O)N[C@@H](c2cccc(C(F)(F)F)c2)[C@@H](C(=O)OC)[C@H]1C`: under setting [2], the AC50 is 1.26 µM [falling, single point]. For the molecule `Cc1cc(C(=O)Cn2cncn2)c(C)n1CCc1ccc(F)cc1`, the AC50 under setting [2] was 35.5 µM [rising, single point]. As for `O=C(NC1=NCCS1)c1cc(-c2ccc(-c3ccccc3)cc2)nc2ccccc12`, under setting [2], the AC50 is 15.8 µM [rising, partial curve].

In the case of `C[C@@H]1[C@H](C)CC[C@@]2(C(=O)O[C@H]3O[C@@H](CO[C@H]4O[C@@H](CO)[C@@H](O[C@H]5O[C@@H](C)[C@@H](O)[C@@H](O)[C@@H]5O)[C@@H](O)[C@@H]4O)[C@@H](O)[C@@H](O)[C@@H]3O)CC[C@]3(C)C(=CC[C@H]4[C@@]5(C)C[C@@H](O)[C@@H](O)[C@](C)(CO)[C@@H]5CC[C@@]43C)[C@@H]12`, the AC50 by setting is: under setting [1], 0.398 µM [falling, partial curve]; under setting [2], 0.355 µM [falling, single point].
